Measured values from paper PMC8032703.
No constants are given. Whether binding was seen depends on the method and setting. For some of these results: Binding can be weak; no strength is given. Where a sequence is shown, tags or fusion partners need not be part of it.

Legend:
[1] = biological target: T1, FlgL (hook-associated protein, HAP3), pKT25-flgL two-hybrid fusion (Vibrio vulnificus); experiment: two-hybrid; bacterial two-hybrid in E. coli BTH101: pUT18c with flaB or flaC, pKT25 with flgK, flgL or fliD; colour on X-gal plates (40 μg/ml X-gal, 0.5 mM IPTG) and β-galactosidase activity with ONPG in Miller units
T1 sequence: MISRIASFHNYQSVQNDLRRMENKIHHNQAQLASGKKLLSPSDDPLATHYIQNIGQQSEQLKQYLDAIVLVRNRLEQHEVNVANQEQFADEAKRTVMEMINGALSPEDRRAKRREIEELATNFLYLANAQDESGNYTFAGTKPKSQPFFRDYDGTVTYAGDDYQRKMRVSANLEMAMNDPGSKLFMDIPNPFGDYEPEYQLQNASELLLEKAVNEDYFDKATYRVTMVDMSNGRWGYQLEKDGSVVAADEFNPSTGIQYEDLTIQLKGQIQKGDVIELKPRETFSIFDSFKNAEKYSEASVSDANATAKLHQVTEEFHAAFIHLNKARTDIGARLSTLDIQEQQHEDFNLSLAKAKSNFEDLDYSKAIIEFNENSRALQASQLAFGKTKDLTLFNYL

[2] = biological target: T2, FlgK (hook-associated protein, HAP1), pKT25-flgK two-hybrid fusion (Vibrio vulnificus); experiment: as above
T2 sequence: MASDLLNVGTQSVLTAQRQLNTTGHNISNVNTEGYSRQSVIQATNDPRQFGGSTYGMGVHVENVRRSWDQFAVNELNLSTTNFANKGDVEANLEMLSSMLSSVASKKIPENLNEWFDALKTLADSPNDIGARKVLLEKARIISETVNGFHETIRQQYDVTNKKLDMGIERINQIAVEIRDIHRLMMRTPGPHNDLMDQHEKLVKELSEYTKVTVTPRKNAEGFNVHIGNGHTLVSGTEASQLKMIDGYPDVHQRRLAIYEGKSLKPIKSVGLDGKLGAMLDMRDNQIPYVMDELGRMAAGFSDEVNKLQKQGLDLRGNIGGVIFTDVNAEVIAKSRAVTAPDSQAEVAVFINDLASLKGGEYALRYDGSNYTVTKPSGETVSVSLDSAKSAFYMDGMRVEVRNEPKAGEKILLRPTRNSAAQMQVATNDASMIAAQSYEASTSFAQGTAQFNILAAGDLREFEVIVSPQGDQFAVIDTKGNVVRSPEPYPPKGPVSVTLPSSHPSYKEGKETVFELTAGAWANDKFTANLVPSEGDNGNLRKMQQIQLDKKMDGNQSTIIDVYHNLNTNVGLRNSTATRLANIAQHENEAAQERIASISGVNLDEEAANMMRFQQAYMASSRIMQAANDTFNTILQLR

| Substance | binding [1] | binding [2] |
| --- | --- | --- |
| FlaB (flagellin subunit), pUT18c-flaB two-hybrid fusion (Vibrio vulnificus MO6-24/O) | binds | no binding |
| FlaC (flagellin subunit), pUT18c-flaC two-hybrid fusion (Vibrio vulnificus MO6-24/O) | binds | no binding |
